Some of the results follow. Values are raw readings; no control value is given beside them.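 Primary screen: polymyxin B was added at a level permeabilizing Salmonella outer membranes while sparing inner membranes. DMSO wells, both with and without polymyxin B, established maximum growth. Plate-to-plate variation meant each plate was ranked on its own, and the lowest-OD600 compounds were selected as hits.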
Test system: Salmonella enterica serovar Typhimurium SL1344
Assay: bacterial growth OD600 after 18 h with compound and polymyxin B; higher = more bacterial growth (less inhibition)
Conditions: 50 µM, Mueller-Hinton broth

Row | SMILES | bacterial growth OD600 (polymyxin B 1 µg/mL) | bacterial growth OD600 (polymyxin B 0.75 µg/mL)
1 | Cc1cccc(NC(=O)CCC2CCN(C(=O)Cn3cnnn3)CC2)c1 | 0.97 | –
2 | CCC(=O)N1CCOc2c(cc(-c3cccnc3)cc2OCCc2cccs2)C1 | – | 0.917
3 | COC(=O)CCC(=O)N1CCC(Oc2cccc(C(=O)NCc3ccccn3)c2)CC1 | 0.854 | –
4 | CN(C)c1ncccc1CNCc1cccc(Oc2ccccc2)c1 | – | 0.682
5 | O=C(NC1CCCN(CCc2ccccc2)C1)c1ccc(F)c(Cl)c1 (configuration not stated) | – | 0.002
6 | CCN(Cc1ccncc1)C(=O)Cn1nnnc1CN1C[C@@H](C)O[C@@H](C)C1 | – | 0.836
7 | Cc1cccc(CN2CCCC3(CCN(c4nc(C)cnc4C)C3)C2=O)c1 (configuration not stated) | 1.08 | –
8 | O=C(NCC1CCCN(C(=O)C[n+]2cc([O-])on2)C1)c1cccc2ccccc12 (configuration not stated) | – | 0.804
9 | COc1cccc(CC2(CCC(=O)NCC3(c4ccccc4)CCOCC3)CCC(=O)N2)c1 (configuration not stated) | – | 0.922
10 | CC1(C)Cc2c(cnn2-c2ccc(F)cc2)C(NC(=O)CCN2CCCCO2)C1 (configuration not stated) | 0.938 | –
11 | CN(C)CCNc1ccc(-c2nc(-c3ccccc3F)no2)cn1 | 0.956 | –
12 | Cc1ccccc1CCC1CCCN(C(=O)CCc2cn[nH]c2)C1 (configuration not stated) | – | 0.706
13 | COC(=O)CN(C)C(=O)c1coc(COc2cccc(F)c2F)n1 | – | 0.876
14 | Cc1[nH]c2ccccc2c1CC(=O)NCC1Cc2c(F)ccc(-c3ccc(C(N)=O)cc3)c2O1 (configuration not stated) | – | 0.739
15 | COc1ccc(C(C)N(C)C(=O)CCC2(Cc3ccc(C)cc3)CCC(=O)N2)cc1 (configuration not stated) | – | 0.918
16 | COCCC(=O)N1CCCC(N2CCN(Cc3ccc4c(c3)OCO4)CC2)C1 (configuration not stated) | 0.861 | –

Part of the list above, as tab-separated lines.
Row	SMILES	bacterial growth OD600 (polymyxin B 1 µg/mL)	bacterial growth OD600 (polymyxin B 0.75 µg/mL)
8	O=C(NCC1CCCN(C(=O)C[n+]2cc([O-])on2)C1)c1cccc2ccccc12 (configuration not stated)	–	0.804
9	COc1cccc(CC2(CCC(=O)NCC3(c4ccccc4)CCOCC3)CCC(=O)N2)c1 (configuration not stated)	–	0.922

(next part)

Row | SMILES | bacterial growth OD600 (polymyxin B 1 µg/mL) | bacterial growth OD600 (polymyxin B 0.75 µg/mL)
17 | CC(C)(C)C(=O)Nc1ccnn1C1CCN(C(=O)Cc2cccnc2)CC1 | 0.956 | –
18 | COCC1CCN(C(=O)c2coc(COc3cccc(C(F)(F)F)c3)n2)C1 (configuration not stated) | 0.975 | –
19 | COCCN1CCCC2(CCN(Cc3cccc4nonc34)C2)C1 (configuration not stated) | 0.87 | –
20 | Cc1oc(-c2ccccc2NC(=O)CC2CCCC2)nc1CNC(=O)Cn1c(=O)oc2ccccc21 | – | 0.781
21 | CS(=O)(=O)N1CCC(Oc2ccc(C(=O)NC3CCCCC3)cc2Cl)CC1 | 1.05 | –
22 | O=C(c1ccco1)N(C1CC1)C(Cc1ccccc1)C1CCN(Cc2cc(F)ccc2F)CC1 (configuration not stated) | – | 0.002
23 | Fc1cccc(CN2CCCC(c3nc(-c4ccncc4)ncc3-c3ccccc3)C2)c1F (configuration not stated) | – | 0.005
24 | CC(NC1CCN(c2ccc(CC(=O)N3CCC(O)CC3)cc2)CC1)c1cccc2ccccc12 (configuration not stated) | – | 0.794
25 | O=C(c1cnn(Cc2ccccc2)c1)N1CCCC(Nc2ccc3c(c2)OCCO3)C1 (configuration not stated) | 0.941 | –
26 | CCCCN(C)c1ccc(C(=O)N2CCCN(c3ncccn3)CC2)cn1 | – | 0.782
27 | Cc1cc(C)n(-c2ccc(C(=O)NCC3Cc4cc(-c5cnccn5)cc(Cl)c4O3)cc2)n1 (configuration not stated) | – | 0.708
28 | COc1ccc(CCc2nnc(CCC(=O)NC(C)c3ccc(F)cc3)o2)cc1 (configuration not stated) | 0.884 | –
29 | COc1ccc(-c2noc(CN(C)Cc3cccc4cnccc34)n2)c(OC)c1OC | 0.896 | –
30 | COc1ccc(F)c(CN2CCCC(CCC(=O)N3CCOCC3)C2)c1 (configuration not stated) | 0.922 | –
31 | O=C1CCCCN1CCC(=O)N1CCCC(CCc2ccccc2F)C1 (configuration not stated) | – | 0.95
32 | CSc1nc(C(=O)N2CCc3onc(-c4ccc(Cl)cc4)c3C2)cs1 | – | 0.004

— the supplement of paper PMC12889115
